Data taken from article PMC7876134.
No constants are given. Whether binding was seen depends on the method and setting. In cells and extracts the contact can be indirect. Some entries that bind do so weakly or less than the wild type. Tags and fused reporters may be left off the sequences shown.

The chains behind the UniProt entries cited, without tags or fusion partners.
UniProt P21333: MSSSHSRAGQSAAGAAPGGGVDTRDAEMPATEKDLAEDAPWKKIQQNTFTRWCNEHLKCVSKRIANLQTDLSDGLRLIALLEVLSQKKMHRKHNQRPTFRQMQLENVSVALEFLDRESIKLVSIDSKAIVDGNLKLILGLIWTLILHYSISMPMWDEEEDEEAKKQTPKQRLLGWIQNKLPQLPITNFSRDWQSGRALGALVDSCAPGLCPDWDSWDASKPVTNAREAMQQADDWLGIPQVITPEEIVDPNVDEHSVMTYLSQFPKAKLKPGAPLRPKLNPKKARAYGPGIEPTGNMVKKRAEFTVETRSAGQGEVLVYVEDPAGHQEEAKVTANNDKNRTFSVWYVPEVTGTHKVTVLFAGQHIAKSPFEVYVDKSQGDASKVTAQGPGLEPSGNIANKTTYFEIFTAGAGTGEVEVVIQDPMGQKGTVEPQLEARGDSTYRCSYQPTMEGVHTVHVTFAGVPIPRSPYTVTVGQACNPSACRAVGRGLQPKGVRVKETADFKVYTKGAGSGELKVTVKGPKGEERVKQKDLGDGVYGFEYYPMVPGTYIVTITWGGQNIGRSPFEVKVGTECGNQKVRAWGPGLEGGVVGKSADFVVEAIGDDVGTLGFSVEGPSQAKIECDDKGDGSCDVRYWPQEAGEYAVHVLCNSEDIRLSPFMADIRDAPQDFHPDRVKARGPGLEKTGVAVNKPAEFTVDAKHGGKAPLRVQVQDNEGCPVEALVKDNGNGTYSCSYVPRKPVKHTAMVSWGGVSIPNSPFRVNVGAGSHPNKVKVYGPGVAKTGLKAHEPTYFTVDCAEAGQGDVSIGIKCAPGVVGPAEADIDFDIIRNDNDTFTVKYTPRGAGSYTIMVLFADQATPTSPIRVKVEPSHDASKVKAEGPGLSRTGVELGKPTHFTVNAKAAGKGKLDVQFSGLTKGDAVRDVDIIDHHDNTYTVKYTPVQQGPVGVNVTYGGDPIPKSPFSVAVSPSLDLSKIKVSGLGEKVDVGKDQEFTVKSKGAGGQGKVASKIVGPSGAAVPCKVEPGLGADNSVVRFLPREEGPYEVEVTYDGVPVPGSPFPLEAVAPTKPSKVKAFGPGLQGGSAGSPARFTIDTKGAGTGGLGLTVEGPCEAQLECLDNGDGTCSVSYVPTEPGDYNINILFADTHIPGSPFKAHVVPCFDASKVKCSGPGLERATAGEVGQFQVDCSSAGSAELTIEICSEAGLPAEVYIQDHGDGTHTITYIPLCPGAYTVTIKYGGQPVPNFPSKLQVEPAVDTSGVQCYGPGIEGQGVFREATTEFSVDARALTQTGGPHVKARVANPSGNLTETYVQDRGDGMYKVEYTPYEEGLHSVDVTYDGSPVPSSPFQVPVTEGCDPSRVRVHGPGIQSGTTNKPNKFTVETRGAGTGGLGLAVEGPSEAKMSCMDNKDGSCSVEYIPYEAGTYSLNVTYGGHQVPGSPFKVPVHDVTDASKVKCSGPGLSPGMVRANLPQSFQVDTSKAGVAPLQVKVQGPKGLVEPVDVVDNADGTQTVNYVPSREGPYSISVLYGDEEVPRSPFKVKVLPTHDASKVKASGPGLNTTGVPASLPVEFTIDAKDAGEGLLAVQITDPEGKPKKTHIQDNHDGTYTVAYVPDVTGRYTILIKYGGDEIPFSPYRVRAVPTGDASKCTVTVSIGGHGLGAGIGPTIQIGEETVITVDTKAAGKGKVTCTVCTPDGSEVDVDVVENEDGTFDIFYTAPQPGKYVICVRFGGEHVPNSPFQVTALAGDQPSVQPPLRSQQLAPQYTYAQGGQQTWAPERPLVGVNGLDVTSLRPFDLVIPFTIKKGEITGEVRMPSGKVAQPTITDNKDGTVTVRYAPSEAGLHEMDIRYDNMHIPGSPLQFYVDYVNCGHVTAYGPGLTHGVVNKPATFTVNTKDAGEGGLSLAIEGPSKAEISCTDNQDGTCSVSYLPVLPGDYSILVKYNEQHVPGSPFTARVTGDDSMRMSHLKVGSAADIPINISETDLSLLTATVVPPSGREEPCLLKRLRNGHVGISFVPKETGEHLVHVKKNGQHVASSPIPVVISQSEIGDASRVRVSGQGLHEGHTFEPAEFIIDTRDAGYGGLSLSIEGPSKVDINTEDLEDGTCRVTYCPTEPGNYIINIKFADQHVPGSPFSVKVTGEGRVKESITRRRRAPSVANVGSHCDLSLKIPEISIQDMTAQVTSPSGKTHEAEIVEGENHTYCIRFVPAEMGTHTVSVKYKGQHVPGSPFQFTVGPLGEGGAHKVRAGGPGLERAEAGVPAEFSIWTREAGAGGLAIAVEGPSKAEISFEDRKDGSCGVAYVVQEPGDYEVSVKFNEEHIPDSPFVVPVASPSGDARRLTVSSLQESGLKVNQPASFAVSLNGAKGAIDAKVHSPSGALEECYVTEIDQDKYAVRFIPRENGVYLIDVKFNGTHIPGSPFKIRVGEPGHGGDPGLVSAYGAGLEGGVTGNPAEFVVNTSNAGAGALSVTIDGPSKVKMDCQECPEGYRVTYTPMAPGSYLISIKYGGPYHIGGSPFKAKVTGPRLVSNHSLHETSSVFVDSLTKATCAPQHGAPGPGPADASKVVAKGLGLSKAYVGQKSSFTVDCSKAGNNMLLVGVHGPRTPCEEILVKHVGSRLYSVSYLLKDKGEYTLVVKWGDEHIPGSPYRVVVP

Biological target: T1, 3 × FLAG-labeled lanthionine synthetase C-like protein 2 (LANCL2) (UniProt Q9NS86)
T1 sequence: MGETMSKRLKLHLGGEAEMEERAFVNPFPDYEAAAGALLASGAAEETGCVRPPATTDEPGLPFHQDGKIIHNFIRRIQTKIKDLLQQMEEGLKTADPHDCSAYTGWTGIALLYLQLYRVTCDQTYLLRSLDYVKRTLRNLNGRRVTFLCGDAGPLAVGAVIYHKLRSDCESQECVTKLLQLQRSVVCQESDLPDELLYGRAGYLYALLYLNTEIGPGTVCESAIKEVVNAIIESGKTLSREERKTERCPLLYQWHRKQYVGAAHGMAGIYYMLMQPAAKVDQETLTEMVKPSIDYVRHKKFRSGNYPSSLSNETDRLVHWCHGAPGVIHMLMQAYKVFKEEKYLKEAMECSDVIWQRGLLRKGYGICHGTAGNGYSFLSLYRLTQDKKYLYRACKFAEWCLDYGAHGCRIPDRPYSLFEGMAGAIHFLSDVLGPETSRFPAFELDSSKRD
Assay: co-IP; 3xFLAG-LANCL2 captured from infected PC9 cells on anti-FLAG M2 Affinity Gel beads, washed with lysis buffer, immunoblotting of the immunoprecipitates

Filamin A (FLNA) (from UniProt P21333 1-2647)
binding: binds

B1: glutathione S-transferase Mu 3 (GSTM3) (protein, UniProt P21266 1-225)
chain: MSCESSMVLGYWDIRGLAHAIRLLLEFTDTSYEEKRYTCGEAPDYDRSQWLDVKFKLDLDFPNLPYLLDGKNKITQSNAILRYIARKHNMCGETEEEKIRVDIIENQVMDFRTQLIRLCYSSDHEKLKPQYLEELPGQLKQFSMFLGKFSWFAGEKLTFVDFLTYDILDQNRIFDPKCLDEFPNLKAFMCRFEALEKIAAYLQSDQFCKMPINNKMAQWGNKPVC
binding: binds
